These are yes or no findings as the source states them, for the method shown. Some results given as binding are weak or reduced against the parent protein; the word gives no strength.
How the values were obtained:
CS-1 [1] = molecular target: T1, CS-1 (human, UniProt Q9NQ25 23-335); assay: flow cytometry on multiple myeloma cells, MFI against isotype control
CS-1 [2] = molecular target: T1, CS-1; assay: flow cytometry on H929 cells; protein L-biotin and anti-biotin PE for detection

The chains behind the UniProt entries cited, without tags or fusion partners. Residues count along the entry.
UniProt Q9NQ25, residues 23-335: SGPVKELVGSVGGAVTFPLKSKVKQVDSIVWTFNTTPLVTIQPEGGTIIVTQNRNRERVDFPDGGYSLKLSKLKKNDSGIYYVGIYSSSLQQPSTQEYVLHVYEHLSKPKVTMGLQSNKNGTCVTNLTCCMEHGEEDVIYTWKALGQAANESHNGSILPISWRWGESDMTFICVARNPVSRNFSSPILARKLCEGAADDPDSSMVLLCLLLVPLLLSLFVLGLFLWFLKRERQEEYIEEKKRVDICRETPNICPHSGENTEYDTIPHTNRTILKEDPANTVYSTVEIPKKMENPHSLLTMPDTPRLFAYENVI

B1: anti-CS-1 tri-specific cytotoxic lymphocytes engager (TriCLE) (bispecific antibody)
chain: QVQLVESGGGLVKPGGSLRLSCAASGFTFSSYGMHWVRQAPGKGLEWVAFIRYDGSNKYYADSVKGRFTISRDNSKNTLYLQMNSLRAEDTAVYYCAKDRGLGDGTYFDYWGQGTTVTVSSGGGGSGGGGSGGGGSQSALTQPASVSGSPGQSITISCSGSSSNIGNNAVNWYQQLPGKAPKLLIYYDDLLPSGVSDRFSGSKSGTSAFLAISGLQSEDEADYYCAAWDDSLNGPVFGGGTKLTVLPSGQAGAAASESLFVSNHAYKLELKTGAGFTLPTSYHQQCYYVALDEAQVNSITFTFDTGSGSGTFRDPVGTYRYSASYILLKPSQGPKQQYWAVGTIVDQSAKCTISVRDGVSTSMSKQSQTMVIDGGGGSGGGGSGGGGSSVTVSTGQGWYDMARTAIMTSRACYYVASDESTPSSLQMYATSSSKDVTLTAKDKFKQNLRTESDSPHIMGIWELGQGPRQKVWNMWYTTFSYGSAKCSLKVSAGPRVLEAGPQQLQVQSHHHHHH
With B1 the binding (CS-1 [1]) was “binds” and the binding (CS-1 [2]) was “binds”.

Reference: US20180237519A1 (OHIO STATE INNOVATION FOUNDATION, published 2018)
